Measured values: publication PMC10449177
No constants are given. Whether binding was seen depends on the method and setting. In cells and extracts the contact can be indirect. Some binding calls cover weakened binding; strength is not graded here.

By UniProt entry, the sequences of proteins in these tests, tags left out.
UniProt P25106: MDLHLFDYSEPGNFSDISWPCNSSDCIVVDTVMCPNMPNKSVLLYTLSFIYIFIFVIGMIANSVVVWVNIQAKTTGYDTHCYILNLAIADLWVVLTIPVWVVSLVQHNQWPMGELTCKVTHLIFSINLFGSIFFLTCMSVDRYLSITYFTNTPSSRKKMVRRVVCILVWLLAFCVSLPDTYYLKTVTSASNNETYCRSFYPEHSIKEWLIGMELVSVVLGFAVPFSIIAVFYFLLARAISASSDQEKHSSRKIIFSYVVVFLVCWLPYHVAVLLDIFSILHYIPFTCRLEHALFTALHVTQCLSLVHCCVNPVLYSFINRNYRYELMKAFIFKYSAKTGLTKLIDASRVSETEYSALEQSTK

Molecular target: T1, Macrophage migration inhibitory factor (human (endogenous in H1 and H9 human ESCs)) (UniProt P14174)
T1 sequence: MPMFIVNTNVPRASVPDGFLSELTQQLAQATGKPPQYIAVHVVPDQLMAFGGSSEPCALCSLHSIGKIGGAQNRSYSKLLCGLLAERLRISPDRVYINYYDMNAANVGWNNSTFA
Assay: co-IP; endogenous proteins in human ESC lysate (IP lysis buffer); 2 ug antibody (MIF antibody, or CXCR7 antibody for the reverse IP) with protein A/G beads overnight at 4°C; washed three times; Western blot; IgG as negative control

binding: binds
Substance: CXCR7 (from UniProt P25106 1-362) (receptor)
